Test results as given in US20230220073A1.
Results are given in words; binding and its absence hold for the method and conditions named. Some results given as binding are weak or reduced against the parent protein; the word gives no strength.

Chains of the proteins cited; added tags and fusions are not shown. Lines headed by an entry give the natural chain unless they say otherwise; changes in a name come on top. A line that says so, or that is headed by a name, gives the form on record, which may keep a tag or linker. Residues count along the entry.
UniProt Q01973: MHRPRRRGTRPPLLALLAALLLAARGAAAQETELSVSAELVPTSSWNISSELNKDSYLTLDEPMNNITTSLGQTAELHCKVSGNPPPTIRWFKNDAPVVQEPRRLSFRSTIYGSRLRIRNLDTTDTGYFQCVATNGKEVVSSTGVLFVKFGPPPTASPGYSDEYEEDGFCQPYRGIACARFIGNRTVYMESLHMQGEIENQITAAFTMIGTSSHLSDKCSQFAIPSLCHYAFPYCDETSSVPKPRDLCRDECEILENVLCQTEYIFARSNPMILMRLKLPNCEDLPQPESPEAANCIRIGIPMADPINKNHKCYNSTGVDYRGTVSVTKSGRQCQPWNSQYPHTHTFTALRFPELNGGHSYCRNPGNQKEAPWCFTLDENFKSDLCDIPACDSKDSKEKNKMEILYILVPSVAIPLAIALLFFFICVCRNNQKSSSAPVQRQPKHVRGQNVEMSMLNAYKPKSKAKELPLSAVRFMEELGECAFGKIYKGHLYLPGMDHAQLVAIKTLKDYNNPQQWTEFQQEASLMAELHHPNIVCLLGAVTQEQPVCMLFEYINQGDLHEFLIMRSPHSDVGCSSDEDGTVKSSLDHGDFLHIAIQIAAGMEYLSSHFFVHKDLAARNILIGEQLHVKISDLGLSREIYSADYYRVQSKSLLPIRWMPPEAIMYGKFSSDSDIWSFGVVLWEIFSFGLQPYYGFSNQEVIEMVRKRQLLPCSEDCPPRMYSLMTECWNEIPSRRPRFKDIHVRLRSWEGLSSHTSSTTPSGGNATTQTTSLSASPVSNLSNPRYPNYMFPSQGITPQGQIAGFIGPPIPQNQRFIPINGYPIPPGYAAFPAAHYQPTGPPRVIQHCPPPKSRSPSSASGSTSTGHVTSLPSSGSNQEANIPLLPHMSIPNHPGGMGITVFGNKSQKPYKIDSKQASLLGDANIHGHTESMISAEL
SKW 6.4 GFP: residues 30-937 of Q01973
ROR1, full extracellular region, on transduced SUP-T1 cells: residues 30-406 of Q01973
ROR1 Ig-like+Frizzled (Fz) domains, on transduced SUP-T1 cells: residues 30-299 of Q01973
ROR1 Ig-like domain alone, on transduced SUP-T1 cells: residues 30-147 of Q01973
ROR1 Ig-like domain with S(50)D, on transduced SUP-T1 cells (Q01973, form named): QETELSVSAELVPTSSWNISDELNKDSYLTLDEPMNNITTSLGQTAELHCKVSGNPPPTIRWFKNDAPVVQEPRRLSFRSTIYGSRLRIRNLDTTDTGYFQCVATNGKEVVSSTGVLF

Legend:
[1] = target: ROR1, full extracellular region, on transduced SUP-T1 cells (UniProt Q01973); test: flow cytometry on ROR1-expressing cells; whole immunoglobulin
[2] = target: ROR1 Ig-like+Frizzled (Fz) domains, on transduced SUP-T1 cells (UniProt Q01973); test: flow cytometry, transduced SUP-T1 cells, anti-human Fc-Dylight647
[3] = target: ROR1, full extracellular region, on transduced SUP-T1 cells (UniProt Q01973); test: as above
[4] = target: ROR1 Ig-like domain alone, on transduced SUP-T1 cells (human) (UniProt Q01973); test: as above
[5] = target: SKW 6.4 GFP (human) (UniProt Q01973); test: flow cytometry, SKW 6.4 GFP cells stained at 4 C, anti-human Fc-Dylight 647
[6] = target: ROR1 Ig-like domain with S(50)D, on transduced SUP-T1 cells (human) (UniProt Q01973); test: flow cytometry on SUP-T1 cells transduced with mutated ROR1 Ig-like domain

Measured: binding

B1: Clone B chimeric ROR1 antibody (antibody, V domains shown)
VH: DVQLEESGGGLVRPGRSLKLSCADSGVNFSNRGMAWVRQAPTKGLEWVATISYDGRIIYYRDSVKGRFSISRENAKSTLYLQMDSLRSEDTATYYCARHPIAADWYFDFWGPGTMVTVSS
VL: DIRMTQSPASLSASLGETVTIECLTSEDIYSDLAWFQQKPGKSPQLLIYDANSLQNGVPSRFGGCGSGTQYSLQISSLQSEDVATYFCQQYKNYPPTFGGGTKLVLK
not listed: [6]
binds: all other assays above

B2: Clone A chimeric ROR1 antibody (antibody, V domains shown)
VH: QVQLQQSGTELVKPASSVRISCKASGYTLTTNYMHWIRQQPGNGLEWIGWIYPGNGNTKFNHKFDGRTTLTADKSSSIVYMQLSSLTSEDSAVYFCARSDFDYWGQGVMVTVSS
VL: DIQMTQSPSSMSASLGDRVTFTCQASQDIGNNLIWFQQKPGKSPRPLMYFATSLANGVPSRFSGSRSGSDYSLTISSLESEDLADYHCLQYREYPLTFGSGTKLDLK
binds: [6]

B3: Clone J chimeric ROR1 antibody (antibody, V domains shown)
VH: DVKLVESGGGLLKPGGSLKLSCVASGFSFSKYWMHWVRQAPGQGLEWIAEIEYDGTETNYAPSIKDRFTISRDNAKNTLYLQMSNVRFEDAATYFCTTEEMHTTDYYYGFAYWGQGTLVTVSS
VL: DIVLTQSPALAVSVGQRATISCRASQSVSISRYDFMHWYQQKPGQQPKLLIYRASNLASGIPARFSGSGSGTDFTLTINPVQADDIATYYCQQNRESPRTFGGGTKLELK
not listed: [6]
binds: all other assays above
